Laboratory results: PubChem BioAssay AID248 (DTP/NCI, 2004)
The list is a part of this screen's results and no random one: it gathers tests that were run many times, whatever their T/C, doses with no T/C, and many T/C values between a quarter and a half above the control. Further doses and runs are listed elsewhere. T/C is the treated group as % of the vehicle group. Some entries give survivors of the animals treated and no T/C: the source holds a T/C of zero for them, seemingly a mark for toxic or unscored doses. Some survivor counts are full or nearly so, which does not show that the dose was tolerated: the source hardly ever lists a survival T/C far under the control, and the zero likely stands for such cases as well. Survivors were counted at the toxicity check, usually on the fifth day, unless a day is given; later deaths do not show. Schedule codes are those of the source, taken here to give the interval after Q, in days (D) or hours (H), and the number of doses after X. Some entries were tested several times; the results are listed from low to high. Some schedules carry Z or #; the key to these is not given. Some structures stand for samples that the source files as different forms (salt, stereo form or complex); doses refer to the form tested. Where survival is the endpoint, the PubChem record calls one and a half times the control and up active, and a quarter to a half above the control has no call in these data; cut-offs in other NCI protocols can differ. Some T/C values are followed by the survivors on the day toxicity was checked, most often the fifth; where none is given, no animal had died by that day. Signs of the kind (2×) stand for listed records that agree.

Test system: L1210 leukemia ip in BDF1 mice, survival T/C
Assay: NCI In Vivo Anticancer Drug Screen. Data for tumor model L1210 Leukemia (intraperitoneal) in B6D2F1 (BDF1) mice
Settings: T/C endpoint: mean survival time, higher T/C = longer survival
[1] = dose: 6.25 mg/kg/injection, schedule: Q01DX009 (ip), vehicle: saline
[2] = dose: 12.5 mg/kg/injection, schedule: Q01DX009 (ip), vehicle: saline
[3] = dose: 25.0 mg/kg/injection, schedule: Q01DX009 (ip), vehicle: saline
[4] = dose: 50.0 mg/kg/injection, schedule: Q01DX009 (ip), vehicle: saline
[5] = dose: 100.0 mg/kg/injection, schedule: Q01DX009 (ip), vehicle: saline
[6] = dose: 200.0 mg/kg/injection, schedule: Q01DX009 (ip), vehicle: saline
[7] = dose: 400.0 mg/kg/injection, schedule: Q04DX003 (ip), vehicle: saline with Tween-80
[8] = dose: 400.0 mg/kg/injection, schedule: Q01DX001 (ip), vehicle: saline with Tween-80
[9] = dose: 400.0 mg/kg/injection, schedule: Q04DX003 (ip), vehicle: saline
[10] = dose: 0.8 mg/kg/injection, schedule: Q01DX Z (oral), vehicle: methylcellulose (MC)
[11] = dose: 3.6 mg/kg/injection, schedule: Q01DX Z (oral), vehicle: methylcellulose (MC)

Structure (SMILES): C(=P(c1ccccc1)(c1ccccc1)c1ccccc1)[P+](c1ccccc1)(c1ccccc1)c1ccccc1
- T/C (dose: 3.13 mg/kg/injection, schedule: Q01DX009 (ip), vehicle: saline): 93 [2 of 3 alive], 102 (2×), 104 % of control
- T/C (dose: 4.12 mg/kg/injection, schedule: Q01DX009 (ip), vehicle: saline): 125 % of control
- T/C [1]: 134 % of control
- survivor count [1]: 0 of 3 and 4 of 6
- T/C (dose: 9.3 mg/kg/injection, schedule: Q01DX009 (ip), vehicle: saline): 136 % of control
- survivor count [2]: 0 of 3 and 3 of 6
- survivor count [3]: 6 of 6
- survivor count [4]: 1 of 6 and 1 of 3
- survivor count [5]: 0 of 3
- survivor count (dose: 100.0 mg/kg/injection, schedule: Q04DX002 (ip), vehicle: saline): 0 of 3 and 0 of 6
- survivor count [6]: 0 of 3
- survivor count (dose: 200.0 mg/kg/injection, schedule: Q04DX002 (ip), vehicle: saline): 0 of 3 and 0 of 6
- survivor count (dose: 400.0 mg/kg/injection, schedule: Q04DX002 (ip), vehicle: saline): 0 of 3, 0 of 6, 3 of 3

Structure (SMILES): CC1=C(Br)C(=O)C(Br)=C(Br)C1=O
- survivor count (dose: 200.0 mg/kg/injection, schedule: Q04DX003 (ip), vehicle: acetone): 4 of 6
- survivor count (dose: 400.0 mg/kg/injection, schedule: Q04DX003 (ip), vehicle: acetone): 0 of 6

Structure (SMILES): CS(=O)(=O)OCC(=O)NCCCNC(=O)COS(C)(=O)=O
- T/C (dose: 9.4 mg/kg/injection, schedule: Q01DX015 (ip), vehicle: saline): 125 % of control
- T/C (dose: 37.5 mg/kg/injection, schedule: Q01DX015 (ip), vehicle: saline): 142 % of control
- T/C (dose: 256.0 mg/kg/injection, schedule: Q01DX009 (ip), vehicle: saline): 142 % of control [5 of 6 alive]
- survivor count (dose: 400.0 mg/kg/injection, schedule: Q01DX009 (ip), vehicle: saline): 3 of 6
- survivor count (dose: 600.0 mg/kg/injection, schedule: Q01DX009 (ip), vehicle: saline): 1 of 6

Structure (SMILES): C=CC[N+]1=C(C)C(C)(C)c2ccccc21
- survivor count [7]: 1 of 6

Structure (SMILES): O=C(OC1COC(O)C(OC(=O)c2ccccc2)C1OC(=O)c1ccccc1)c1ccccc1 (centres undefined)
- survivor count [8]: 3 of 3

Structure (SMILES): O=C(C[n+]1cccc(C(=O)Nc2ccccc2)c1)Nc1ccccc1
- survivor count (dose: 200.0 mg/kg/injection, schedule: Q04DX003 (ip), vehicle: saline): 0 of 6
- survivor count [9]: 0 of 6

Structure (SMILES): NCCSC(C[N+](=O)[O-])c1ccc2c(c1)OCO2 (centres undefined)
- survivor count [7]: 2 of 6

Structure (SMILES): CCCCCCCCCCCCCCC(F)C(=O)OC (centres undefined)
- survivor count (dose: 200.0 mg/kg/injection, schedule: Q01DX009 (sc), vehicle: olive oil, sesame oil, peanut oil): 4 of 6
- survivor count (dose: 400.0 mg/kg/injection, schedule: Q01DX009 (sc), vehicle: olive oil, sesame oil, peanut oil): 6 of 6

Structure (SMILES): CCCCCCCCC[n+]1cccc(C(=O)c2ccccc2)c1
- survivor count (dose: 75.0 mg/kg/injection, schedule: Q01DX001 (ip), vehicle: saline): 2 of 6
- survivor count (dose: 150.0 mg/kg/injection, schedule: Q01DX001 (ip), vehicle: saline): 0 of 6
- survivor count (dose: 300.0 mg/kg/injection, schedule: Q01DX001 (ip), vehicle: saline): 0 of 6

Structure (SMILES): CC1(N(O)C(=O)NC2CCCCC2)CCCCC1
- survivor count [8]: 1 of 6

Structure (SMILES): C1=NCCCN1
- survivor count [6]: 5 of 6
- survivor count [9]: 2 of 6

Structure (SMILES): O=c1oc(-c2ccccc2)n[n+]([O-])c1-c1ccccc1
- survivor count (dose: 200.0 mg/kg/injection, schedule: Q01DX009 (ip), vehicle: Klucel (hydroxypropylcellulose) (HPC)): 2 of 3

Structure (SMILES): Cc1ccc(Nc2nc(N)nc(N)c2Cl)cc1
- survivor count (dose: 200.0 mg/kg/injection, schedule: Q01DX009 (ip), vehicle: saline with Tween-80): 3 of 3

Structure (SMILES): CCOC(=O)c1ccc(N(C=O)CCC(=O)CCl)cc1
- survivor count [2]: 0 of 6
- survivor count [3]: 4 of 6 and 6 of 6
- survivor count (dose: 50.0 mg/kg/injection, schedule: Q01DX009 (ip), vehicle: carboxymethylcellulose (CMC)): 4 of 6
- survivor count [4]: 0 of 6
- survivor count (dose: 80.0 mg/kg/injection, schedule: Q01DX001 (ip), vehicle: saline): 3 of 6
- survivor count (dose: 100.0 mg/kg/injection, schedule: Q01DX009 (ip), vehicle: carboxymethylcellulose (CMC)): 0 of 6
- survivor count [5]: 0 of 6

Structure (SMILES): NC(=O)N(CCCl)N=O
- T/C (dose: 0.12 mg/kg/injection, schedule: Q#A X Z (oral), vehicle: saline): 147 % of control
- T/C (dose: 0.2 mg/kg/injection, schedule: Q01DX Z (ip), vehicle: methylcellulose (MC)): 125 and 138 % of control
- T/C (dose: 0.4 mg/kg/injection, schedule: Q01DX Z (ip), vehicle: methylcellulose (MC)): 136 % of control
- T/C (dose: 0.5 mg/kg/injection, schedule: Q01DX010 (iv), vehicle: saline): 145 % of control
- T/C (dose: 0.5 mg/kg/injection, schedule: Q01DX Z (iv), vehicle: saline): 136 % of control
- T/C (dose: 0.75 mg/kg/injection, schedule: Q03DX Z (oral), vehicle: saline): 134 % of control
- T/C [10]: 143 % of control
- survivor count [10]: 3 of 6
- T/C (dose: 1.0 mg/kg/injection, schedule: Q01DX Z (iv), vehicle: saline): 131 % of control
- T/C (dose: 1.2 mg/kg/injection, schedule: Q01DX001 (ip), vehicle: saline): 144 % of control
- survivor count (dose: 1.6 mg/kg/injection, schedule: Q01DX Z (oral), vehicle: methylcellulose (MC)): 6 of 6
- T/C (dose: 1.8 mg/kg/injection, schedule: Q01DX001 (ip), vehicle: saline): 139 and 144 % of control
- survivor count (dose: 2.4 mg/kg/injection, schedule: Q01DX Z (oral), vehicle: methylcellulose (MC)): 3 of 6 and 6 of 6
- T/C (dose: 3.5 mg/kg/injection, schedule: Q01DX Z (oral), vehicle: carboxymethylcellulose (CMC)): 139 % of control
- T/C [11]: 145 % of control
- survivor count [11]: 6 of 6
- T/C (dose: 4.0 mg/kg/injection, schedule: Q01DX009 (ip), vehicle: saline): 133 % of control
- T/C (dose: 7.0 mg/kg/injection, schedule: Q01DX Z (oral), vehicle: carboxymethylcellulose (CMC)): 133 % of control
- T/C (dose: 7.2 mg/kg/injection, schedule: Q01DX001 (ip), vehicle: saline): 140 % of control
- survivor count (dose: 14.0 mg/kg/injection, schedule: Q01DX001 (ip), vehicle: saline): 10 of 10
- survivor count (dose: 14.4 mg/kg/injection, schedule: Q01DX001 (ip), vehicle: saline): 9 of 10 and 10 of 10
- survivor count (dose: 28.8 mg/kg/injection, schedule: Q01DX001 (ip), vehicle: saline): 4 of 10 and 8 of 10
- T/C (dose: 900.0 micrograms/kg/injection, schedule: Q01DX Z (sc), vehicle: steroid suspending solution): 149 % of control

Structure (SMILES): CC(C)Nc1ccc(Nc2ccc(NC(C)C)cc2)cc1
- survivor count (dose: 25.0 mg/kg/injection, schedule: Q04DX003 (ip), vehicle: alcohol): 3 of 6
- survivor count (dose: 28.0 mg/kg/injection, schedule: Q01DX009 (ip), vehicle: alcohol): 2 of 6
- survivor count (dose: 40.0 mg/kg/injection, schedule: Q01DX009 (ip), vehicle: alcohol): 1 of 6
- survivor count (dose: 50.0 mg/kg/injection, schedule: Q04DX003 (ip), vehicle: alcohol): 0 of 6
- survivor count (dose: 100.0 mg/kg/injection, schedule: Q04DX003 (ip), vehicle: alcohol): 0 of 6
- survivor count (dose: 200.0 mg/kg/injection, schedule: Q04DX003 (ip), vehicle: alcohol): 0 of 6
- survivor count (dose: 400.0 mg/kg/injection, schedule: Q04DX003 (ip), vehicle: alcohol): 0 of 6

Structure (SMILES): O=C(O)CC[n+]1c(/C=C/c2cc(Br)c(O)c(Br)c2)sc2ccccc21
- survivor count (dose: 400.0 mg/kg/injection, schedule: Q04DX003 (ip), vehicle: saline sonified): 3 of 6

Structure (SMILES): COc1ccccc1CN1CCCN(Cc2ccccc2OC)C1c1ccccn1
- survivor count (dose: 400.0 mg/kg/injection, schedule: Q01DX001 (ip), vehicle: saline): 2 of 4
